Test results as given in doi:10.1101/2024.01.09.574788.
Results are given in words; binding and its absence hold for the method and conditions named. Binding seen in cells or lysates may run through a third protein. Here binding means that the protein was enriched with, or labelled near, the bait; the list need not be complete.

Protein sequences, listed by entry. Tags and fused reporters are not part of them.
UniProt F4J8D3: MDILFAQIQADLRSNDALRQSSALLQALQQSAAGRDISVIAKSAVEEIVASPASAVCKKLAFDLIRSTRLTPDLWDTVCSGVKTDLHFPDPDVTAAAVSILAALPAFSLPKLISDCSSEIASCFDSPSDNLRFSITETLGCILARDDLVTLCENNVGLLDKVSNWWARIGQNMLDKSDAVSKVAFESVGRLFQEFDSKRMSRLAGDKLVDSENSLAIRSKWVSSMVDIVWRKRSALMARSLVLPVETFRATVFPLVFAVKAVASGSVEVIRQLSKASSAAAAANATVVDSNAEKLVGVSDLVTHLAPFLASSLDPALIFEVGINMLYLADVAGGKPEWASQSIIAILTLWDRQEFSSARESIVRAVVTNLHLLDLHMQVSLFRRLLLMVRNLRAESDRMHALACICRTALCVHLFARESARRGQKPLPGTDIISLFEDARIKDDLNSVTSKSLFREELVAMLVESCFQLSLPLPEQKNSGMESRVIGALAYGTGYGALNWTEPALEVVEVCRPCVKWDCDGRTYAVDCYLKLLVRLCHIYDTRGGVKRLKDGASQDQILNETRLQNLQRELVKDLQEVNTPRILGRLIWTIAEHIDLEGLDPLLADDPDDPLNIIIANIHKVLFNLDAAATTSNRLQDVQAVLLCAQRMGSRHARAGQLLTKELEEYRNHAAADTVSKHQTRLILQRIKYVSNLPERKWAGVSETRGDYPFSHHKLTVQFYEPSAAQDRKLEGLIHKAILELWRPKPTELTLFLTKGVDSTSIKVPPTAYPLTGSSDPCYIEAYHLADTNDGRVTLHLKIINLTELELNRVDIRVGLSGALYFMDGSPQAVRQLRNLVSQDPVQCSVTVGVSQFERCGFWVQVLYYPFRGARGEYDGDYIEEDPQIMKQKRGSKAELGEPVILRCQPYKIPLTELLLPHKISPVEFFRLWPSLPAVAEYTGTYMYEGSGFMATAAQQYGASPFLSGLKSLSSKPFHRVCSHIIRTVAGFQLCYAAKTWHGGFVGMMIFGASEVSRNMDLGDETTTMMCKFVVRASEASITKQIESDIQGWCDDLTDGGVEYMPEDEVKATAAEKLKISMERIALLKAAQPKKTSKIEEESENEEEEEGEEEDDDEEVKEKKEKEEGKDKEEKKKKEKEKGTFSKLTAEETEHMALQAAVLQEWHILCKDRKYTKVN

Target: TPLATE-GSL-PafA (Arabidopsis) (UniProt F4J8D3)
Test: proximity labelling

In the case of “AtEH1/Pan1, a subunit of the TPC (from UniProt F4HUN9)”, the binding is reported as “binds”.
